At least one compound was matched to its structure with a doubt left. Some results were stated once for a whole list of compounds, not compound by compound.
What was measured:
[1] = Powder bulk density by manual filling of hard gelatin capsules; type: physicochemical; conditions: freely settled powder in hard gelatin capsule
[2] = Hygroscopicity test by Dynamic Vapour Sorption (DVS); type: physicochemical
Procedure: The apparatus is a “controlled atmosphere microbalance” where the weighed sample is exposed to programmed variations of the relative humidity (RH) at a constant and controlled temperature. The measured parameters (weight, time and RH), reported in Excel worksheets, allow obtaining hygroscopicity curves over the tested RH range. Sorption/desorption cycles between 0% and 90% RH can be performed at controlled temperature of 25° C. Progressive variations of RH are of 10%; they are operated by the software at the equilibration of the sample weight. This condition can be defined at a constant rate of percent weight variation e.g. 0.005%/min. The experimental results are reported both as in the DVS Isotherm Reports and Isotherm Plots.

Compound	powder bulk density [1]	hygroscopicity (in words) [2]	Water uptake ([2]; 90% RH, 25° C.)
CN1CCN(c2ccc(OC(F)(F)F)c(Nc3ncc4c(n3)-c3c(c(C(N)=O)nn3CCO)CC4)c2)CC1.O=C(O)/C=C/C(=O)O [compound 937 fumarate salt]	greater than 240 mg/ml	–	–
CN1CCN(c2ccc(OC(F)(F)F)c(Nc3ncc4c(n3)-c3c(c(C(N)=O)nn3CCO)CC4)c2)CC1 [compound 937, 1-(2-hydroxy-ethyl)-8-[5-(4-methyl-piperazin-1-yl)-2-trifluoromethoxy-phenylamino]-4,5-dihydro-1H-pyrazolo[4,3-h]quinazoline-3-carboxamide]	about 90 mg/ml	slightly hygroscopic	about 1%

Reference: US8648078B2, “PLK inhibitor salts” (Nerviano Medical Sciences S.R.L., priority 2009, dated 2014)
